Source: article PMC7819943, “Rice protein-binding microarrays: a tool to detect cis-acting elements near promoter regions in rice”
Some of the results follow.

Chains of the proteins cited; added tags and fusions are not shown.
UniProt Q0JBA9, entry or part of it: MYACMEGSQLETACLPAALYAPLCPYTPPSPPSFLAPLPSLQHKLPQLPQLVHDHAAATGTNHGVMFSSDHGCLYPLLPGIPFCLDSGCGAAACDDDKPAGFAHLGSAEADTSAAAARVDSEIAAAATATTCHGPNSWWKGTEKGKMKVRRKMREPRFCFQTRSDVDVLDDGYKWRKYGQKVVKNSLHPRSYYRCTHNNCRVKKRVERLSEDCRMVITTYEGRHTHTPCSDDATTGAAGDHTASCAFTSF

Molecular target: OsWRKY34 (Oryza sativa, UniProt Q0JBA9 1-250)
Test: protein-binding microarray (RPBM); PBS, 2% BSA, 51.3 ng/ul salmon testes DNA, 50 uM zinc acetate, 200 nM TF, 25 C, 1 h; high values mean tight binding
Conditions: protein: recombinant; tags: N-terminal polyhistidine and DsRed monomer fusion (pET32a); label: CyDye5-dUTP incorporated in the synthesized complementary strand; 3' TTTTT single-stranded linker to array surface; dsDNA, one strand shown
How it was run: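 Transcription factors, each fused N-terminally to a polyhistidine tag and DsRed, were expressed in E. coli BL21-CodonPlus and purified on Ni–NTA. A custom Agilent array was made double-stranded by primer extension with Cy5-dUTP and blocked with 2% BSA. It was incubated with 200 nM protein in PBS, 2% BSA, salmon testes DNA and 50 µM zinc acetate at 25 °C for 1 h, then washed. The binding signal is per-feature fluorescence intensity (arbitrary units) read on an Axon 4000B scanner.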

Row | Sequence | binding signal
1 | TCGCGTCGCGTTTCGACCTCGCGCTCTGGGTCTGGGTGTCCGGAGTCACCTAGTGCAG | 8330 fluorescence intensity (a.u.)
2 | TCACGTACGTCCCCTCTACCGGCGACGTCGTCGTTGACTGCGGAGTCACCTAGTGCAG | 10200 fluorescence intensity (a.u.)
3 | TTTCCTCACCCATCTCATCAACGCCTTCTTGCTCTCTATCCGGAGTCACCTAGTGCAG | 8280 fluorescence intensity (a.u.)
4 | GTTTGTATGTTGTCTGGATTCTTTCGGTGTCTCCTTCAATCGGAGTCACCTAGTGCAG | 15100 fluorescence intensity (a.u.)
5 | CAAAATACATCACATCCGATTTTAGATTGCTGCTATATTCCGGAGTCACCTAGTGCAG | 8440 fluorescence intensity (a.u.)
6 | AGGAGGCGGGGCGGGGCGGCGGCGGCGGCGGCGGCGCCCGCGGAGTCACCTAGTGCAG | 11500 fluorescence intensity (a.u.)
7 | AATACCAAAATTTTTGCCACCAAAACTTTTGCCATTTGCCCGGAGTCACCTAGTGCAG | 8300 fluorescence intensity (a.u.)
8 | TTTCCGCTCTACTTTGCTATGCCAACTACTCTTCTCTCCTCGGAGTCACCTAGTGCAG | 11300 fluorescence intensity (a.u.)
9 | GCGTGCCTGCCTCTTCTGTGTCTCTCTGCGACAGCCATCGCGGAGTCACCTAGTGCAG | 8900 fluorescence intensity (a.u.)
10 | TACAGAGCAGTGGTAGTGGTAGTGATGTATATTGATCTTTCGGAGTCACCTAGTGCAG | 8140 fluorescence intensity (a.u.)
11 | CATAGTAATAGTATCGTCGTGTTCACTCTCCGACGACTTACGGAGTCACCTAGTGCAG | 9540 fluorescence intensity (a.u.)
12 | GTTTGGTCTAATATCATTTGTTGGAGTTGCTGCATTATTTCGGAGTCACCTAGTGCAG | 8840 fluorescence intensity (a.u.)
13 | CCATTTGTCCACCACCACCTCCACCACCTGACACGTCGTCCGGAGTCACCTAGTGCAG | 8050 fluorescence intensity (a.u.)
14 | TCCTCGCCCATGGCGTTTCACGTCGCGTGCCCCATCACATCGGAGTCACCTAGTGCAG | 9080 fluorescence intensity (a.u.)
15 | TTTTTTGTTTCTGTTGGGCTTATTTTGTGAACATCTGACCCGGAGTCACCTAGTGCAG | 8550 fluorescence intensity (a.u.)
16 | TAAATGGCCATGATTCTTGCGCGTTTCTGCTCTGTCTGTCCGGAGTCACCTAGTGCAG | 9830 fluorescence intensity (a.u.)
17 | CGCCGTCTCCATCAGATCATTATTCCTTTCTCCTTCCTGTCGGAGTCACCTAGTGCAG | 8320 fluorescence intensity (a.u.)
18 | TTCTAATTTTTTCGTCGTTTTCCTTAATTTTGTTTGAACTCGGAGTCACCTAGTGCAG | 12000 fluorescence intensity (a.u.)
19 | ATCGGAGGACCTGGGAGAGGTTAGGGTTAGGGTTATGGGGCGGAGTCACCTAGTGCAG | 8640 fluorescence intensity (a.u.)
20 | GGTACCACGCTTTGATGTGCCTTATGTGGCACTTTATTTTCGGAGTCACCTAGTGCAG | 10400 fluorescence intensity (a.u.)
21 | TTGCGTGTACTTCCGGGTGGGAGGTTGATGGCGATGGTGACGGAGTCACCTAGTGCAG | 15200 fluorescence intensity (a.u.)

Row | Sequence | binding signal
22 | CCCGCCCGAACGACCACCAATCCACCATTACACCACTTAACGGAGTCACCTAGTGCAG | 8320 fluorescence intensity (a.u.)
23 | TTTCAGCCGATCTTACTTGATTTAGCCTTATATCTTATGTCGGAGTCACCTAGTGCAG | 8140 fluorescence intensity (a.u.)
24 | ACATTTTTCGCTTTTGGACCACATAATCTCCTTGTAATCTCGGAGTCACCTAGTGCAG | 11300 fluorescence intensity (a.u.)
25 | CGGCCCGGCCGCCAGATCCAGTAGGGGCGGGAGGGGAGGCCGGAGTCACCTAGTGCAG | 9150 fluorescence intensity (a.u.)
26 | AGGGCTCACTTCCACTGACATGCGGGGCCCACGCTTTTCCCGGAGTCACCTAGTGCAG | 8650 fluorescence intensity (a.u.)
27 | GAGGGATGTCTTATATCTAGTTTTGTGGTTGGAGGATGATCGGAGTCACCTAGTGCAG | 8770 fluorescence intensity (a.u.)
28 | GTGCTGTTCCTCCGTTCTTCCTTGCACACGACGGCTGCCCCGGAGTCACCTAGTGCAG | 13300 fluorescence intensity (a.u.)
29 | TTGGGACGCTCGATTTTTTCTTTCTGGCCGGACGGCCGATCGGAGTCACCTAGTGCAG | 8540 fluorescence intensity (a.u.)
30 | CTAGGTCCCATGATAGCAGCTCGAGAAGACGAGAATCACTCGGAGTCACCTAGTGCAG | 8180 fluorescence intensity (a.u.)
31 | TGCTCCGGTGATCTCTCCCCGTCCTTGTAACGTAGACGACCGGAGTCACCTAGTGCAG | 8150 fluorescence intensity (a.u.)
32 | TCCCCAGCCGCAAACATTCTCGCATTCTCCACGACTCCACCGGAGTCACCTAGTGCAG | 8120 fluorescence intensity (a.u.)
33 | CTGTGCTGCTTGCGTTGCGTTGGCCGTTGGTAGGTTTTGGCGGAGTCACCTAGTGCAG | 9300 fluorescence intensity (a.u.)
34 | TGTATTGTGGGCCCACACGTCATCCTTTCTTTCCAACCCTCGGAGTCACCTAGTGCAG | 8070 fluorescence intensity (a.u.)
35 | ATACTTGTTAGTTCTGTAAACAGAAGACTGCTATCTTGCCCGGAGTCACCTAGTGCAG | 8530 fluorescence intensity (a.u.)
36 | GCTAGATCTCACCACCAATGGCGCTTCCGTTCTGAGTCACCGGAGTCACCTAGTGCAG | 8700 fluorescence intensity (a.u.)
37 | GTCGATGTGTCTTTTGTGTGTAGTTCTTGTAATTGTTGTGCGGAGTCACCTAGTGCAG | 8220 fluorescence intensity (a.u.)
38 | CAGATACATCTCATTATTTGACCACCACCACCACCACTACCGGAGTCACCTAGTGCAG | 10100 fluorescence intensity (a.u.)
39 | TTGGTCCAAGTGGTGTAAAGTTTTGGTTCTTTTTATTGACCGGAGTCACCTAGTGCAG | 10000 fluorescence intensity (a.u.)
40 | GCCCGCTCTATATCATCGCTGCCTTTTCCGGCCCAGCCCACGGAGTCACCTAGTGCAG | 10400 fluorescence intensity (a.u.)
41 | TTGCTTCTCTTTCCACTATTTTGTTACACACTCCTGTTTCCGGAGTCACCTAGTGCAG | 10700 fluorescence intensity (a.u.)
42 | CTTGCTACATTATACATGTTCTATCTTTGTCTTGCTTGTTCGGAGTCACCTAGTGCAG | 8210 fluorescence intensity (a.u.)

Fetched one by one from the list above:
Row | Sequence | binding signal
19 | ATCGGAGGACCTGGGAGAGGTTAGGGTTAGGGTTATGGGGCGGAGTCACCTAGTGCAG | 8640 fluorescence intensity (a.u.)
17 | CGCCGTCTCCATCAGATCATTATTCCTTTCTCCTTCCTGTCGGAGTCACCTAGTGCAG | 8320 fluorescence intensity (a.u.)
